According to PubChem BioAssay AID248 (DTP/NCI, 2004):
The list does not hold the whole screen: it is rich in T/C values a quarter to a half above the control, in often repeated tests (any T/C) and in doses without a T/C. Further doses and runs are listed elsewhere. T/C: endpoint of the treated group in % of that of the vehicle group. Some doses have a count of surviving animals in place of a T/C: the source files T/C as zero there, which appears to mark a toxic dose or a test without result, not a measured value. Some doses without a T/C left all or most animals alive at the check, yet need not have been tolerated: the source hardly ever lists a survival T/C far under the control, and the zero likely stands for such cases as well. Counts of survivors are from the toxicity check (mostly the fifth day) where no day follows; animals may have died later. Schedule codes are those of the source, read here as Q, the interval in days (D) or hours (H), X, the number of doses. Some schedules carry Z or #; the key to these is not given. Some entries hold several experiments; the values are given in rising order. For survival time, the PubChem record calls one and a half times the control and up active, and a quarter to a half above the control has no call in these data; cut-offs in other NCI protocols can differ. Some T/C values carry the count of animals alive at the toxicity check (mostly the fifth day); without a count, all were alive then.

System: L1210 leukemia ip in BDF1 mice, survival T/C
Test: NCI In Vivo Anticancer Drug Screen. Data for tumor model L1210 Leukemia (intraperitoneal) in B6D2F1 (BDF1) mice
Conditions: T/C endpoint: mean survival time, higher T/C = longer survival
[1] = dose: 200.0 mg/kg/injection, schedule: Q04DX003 (ip), vehicle: Klucel (hydroxypropylcellulose) (HPC)
[2] = dose: 400.0 mg/kg/injection, schedule: Q04DX003 (ip), vehicle: Klucel (hydroxypropylcellulose) (HPC)
[3] = dose: 200.0 mg/kg/injection, schedule: Q01DX009 (ip), vehicle: Klucel (hydroxypropylcellulose) (HPC)
[4] = dose: 200.0 mg/kg/injection, schedule: Q01DX009 (ip), vehicle: saline with Tween-80
[5] = dose: 400.0 mg/kg/injection, schedule: Q04DX003 (ip), vehicle: saline with Tween-80
[6] = dose: 400.0 mg/kg/injection, schedule: Q01DX001 (ip), vehicle: saline
[7] = dose: 400.0 mg/kg/injection, schedule: Q01DX009 (ip), vehicle: Klucel (hydroxypropylcellulose) (HPC)

O=[N+]([O-])c1cccc(Cl)c1Oc1cc(Cl)c(Cl)cc1Cl
survivor count (dose: 20.0 mg/kg/injection, schedule: Q01DX001 (ip), vehicle: saline): 6 of 6 | survivor count (dose: 40.0 mg/kg/injection, schedule: Q01DX001 (ip), vehicle: saline): 6 of 6 | survivor count (dose: 75.0 mg/kg/injection, schedule: Q01DX001 (ip), vehicle: acetone): 4 of 6 | survivor count (dose: 150.0 mg/kg/injection, schedule: Q01DX001 (ip), vehicle: acetone): 3 of 6 | survivor count (dose: 300.0 mg/kg/injection, schedule: Q01DX001 (ip), vehicle: acetone): 0 of 6

CC(=Nc1ccccc1)C1=C(O)C(Cc2ccccc2)NC1=O (stereo unspecified)
T/C (dose: 400.0 mg/kg/injection, schedule: Q01DX001 (ip), vehicle: carboxymethylcellulose (CMC)): 134 % of control [3 of 4 alive] | survivor count (dose: 600.0 mg/kg/injection, schedule: Q01DX001 (ip), vehicle: carboxymethylcellulose (CMC)): 1 of 4 and 2 of 4

N#CC12OC1(C#N)C(=O)C1(Cl)C3C=CC(C3)C1(Cl)C2=O (stereo unspecified)
survivor count (dose: 100.0 mg/kg/injection, schedule: Q01DX009 (ip), vehicle: saline): 0 of 3 | survivor count (dose: 200.0 mg/kg/injection, schedule: Q01DX009 (ip), vehicle: saline): 0 of 3

CC1CCC(C(C)C)C(NCc2ccccc2O)C1 (stereo unspecified)
survivor count [1]: 2 of 6 | survivor count [2]: 0 of 6

Cc1cc(C)c(NC(=O)C(C)(C)C)c(C)c1
survivor count [3]: 6 of 6

CN(C)c1ccc(/C=[N+](\[O-])c2cccc(Cl)c2)cc1
survivor count (dose: 400.0 mg/kg/injection, schedule: Q01DX001 (ip), vehicle: Klucel (hydroxypropylcellulose) (HPC)): 2 of 6

CC(=O)c1cc(O)ccc1O
survivor count [4]: 3 of 6

CCCCCCCCP(=O)(CCCC)CCCC
survivor count [5]: 0 of 3

O=[N+]([O-])c1ccccc1C(=Nc1ccccc1)c1c(O)cc(O)cc1O
survivor count (dose: 400.0 mg/kg/injection, schedule: Q01DX009 (ip), vehicle: acetone): 0 of 6

O=C(CI)Nc1ccc(NC(=O)CI)cc1
survivor count [2]: 0 of 6

c1nc([N+]23CCC(CC2)CC3)c2[nH]cnc2n1
survivor count (dose: 100.0 mg/kg/injection, schedule: Q01DX001 (ip), vehicle: saline): 2 of 4 | survivor count (dose: 200.0 mg/kg/injection, schedule: Q01DX001 (ip), vehicle: saline): 0 of 4 | survivor count [6]: 0 of 4

O=C(NCc1ccc(Cl)c(Cl)c1)Nc1ccccc1F
survivor count (dose: 100.0 mg/kg/injection, schedule: Q01DX009 (ip), vehicle: Klucel (hydroxypropylcellulose) (HPC)): 6 of 6 | survivor count [3]: 6 of 6 | survivor count [7]: 6 of 6

Fc1ccc(/C=N\N=C(N/N=C/c2ccc(F)cc2)N/N=C/c2ccc(F)cc2)cc1
survivor count (dose: 480.0 mg/kg/injection, schedule: Q01DX Z (oral), vehicle: carboxymethylcellulose (CMC)): 3 of 6 | survivor count (dose: 2400.0 mg/kg/injection, schedule: Q01DX Z (ip), vehicle: carboxymethylcellulose (CMC)): 0 of 60 | survivor count (dose: 4800.0 mg/kg/injection, schedule: Q01DX Z (ip), vehicle: carboxymethylcellulose (CMC)): 0 of 60

[O-][n+]1ccccc1/C=C\c1ccccc1
survivor count [6]: 1 of 6

C=CCn1c2ccccc2c2c(C)c3cnccc3c(C)c21
T/C (dose: 18.7 mg/kg/injection, schedule: Q01DX009 (ip), vehicle: saline with Tween-80): 128 % of control | T/C (dose: 37.5 mg/kg/injection, schedule: Q01DX009 (ip), vehicle: saline with Tween-80): 145 % of control | T/C (dose: 75.0 mg/kg/injection, schedule: Q04DX003 (ip), vehicle: saline with Tween-80): 135 % of control | T/C (dose: 150.0 mg/kg/injection, schedule: Q04DX003 (ip), vehicle: saline): 128 % of control | survivor count [4]: 3 of 6

CCc1ccccc1NC(=O)SCCSC(=O)Nc1ccccc1CC
survivor count [3]: 6 of 6

OC1COC(c2ccco2)OC1 (stereo unspecified) (tested in a mixture with another compound)
survivor count [7]: 3 of 6

CSc1nc(Cl)c(Br)c(Sc2nc(N)nc3nc[nH]c23)n1
survivor count (dose: 100.0 mg/kg/injection, schedule: Q01DX Z (ip), vehicle: methylcellulose (MC)): 3 of 6 | survivor count (dose: 200.0 mg/kg/injection, schedule: Q01DX Z (ip), vehicle: methylcellulose (MC)): 6 of 6

Cc1cc(=O)[nH]c2c1C(=O)c1c(C)cc(=O)n(C)c1C2=O
survivor count (dose: 6.0 mg/kg/injection, schedule: Q01DX009 (ip), vehicle: Klucel (hydroxypropylcellulose) (HPC)): 0 of 6 | survivor count (dose: 6.0 mg/kg/injection, schedule: Q04DX003 (ip), vehicle: Klucel (hydroxypropylcellulose) (HPC)): 5 of 6 | survivor count (dose: 12.0 mg/kg/injection, schedule: Q01DX009 (ip), vehicle: Klucel (hydroxypropylcellulose) (HPC)): 0 of 6 | survivor count (dose: 12.0 mg/kg/injection, schedule: Q04DX003 (ip), vehicle: Klucel (hydroxypropylcellulose) (HPC)): 1 of 6 | survivor count (dose: 25.0 mg/kg/injection, schedule: Q01DX009 (ip), vehicle: Klucel (hydroxypropylcellulose) (HPC)): 0 of 6 | survivor count (dose: 25.0 mg/kg/injection, schedule: Q04DX003 (ip), vehicle: Klucel (hydroxypropylcellulose) (HPC)): 0 of 6 | survivor count (dose: 50.0 mg/kg/injection, schedule: Q01DX009 (ip), vehicle: Klucel (hydroxypropylcellulose) (HPC)): 0 of 6 | survivor count (dose: 50.0 mg/kg/injection, schedule: Q04DX003 (ip), vehicle: Klucel (hydroxypropylcellulose) (HPC)): 0 of 6 | survivor count (dose: 100.0 mg/kg/injection, schedule: Q04DX003 (ip), vehicle: Klucel (hydroxypropylcellulose) (HPC)): 0 of 6 | survivor count [1]: 0 of 6 | survivor count [2]: 0 of 6

Cc1ccc2c3csc4ccccc4c-3nc2c1
survivor count (dose: 25.0 mg/kg/injection, schedule: Q01DX009 (ip), vehicle: saline): 0 of 6 | survivor count (dose: 50.0 mg/kg/injection, schedule: Q04DX003 (ip), vehicle: saline): 5 of 6

Cc1cc[n+](CC(=O)CCc2ccc(C(=O)C[n+]3ccc(C)cc3)cc2)cc1
survivor count (dose: 100.0 mg/kg/injection, schedule: Q04DX003 (ip), vehicle: saline): 0 of 6 | survivor count (dose: 200.0 mg/kg/injection, schedule: Q04DX003 (ip), vehicle: saline): 0 of 6 | survivor count (dose: 400.0 mg/kg/injection, schedule: Q04DX003 (ip), vehicle: saline): 0 of 6

Fc1ccc([P+]2(c3ccc(F)cc3)C=C(c3ccccc3)[P+](c3ccc(F)cc3)(c3ccc(F)cc3)C=C2c2ccccc2)cc1
survivor count (dose: 100.0 mg/kg/injection, schedule: Q01DX001 (ip), vehicle: saline with Tween-80): 0 of 6 | survivor count (dose: 200.0 mg/kg/injection, schedule: Q01DX001 (ip), vehicle: saline with Tween-80): 0 of 6 | survivor count (dose: 400.0 mg/kg/injection, schedule: Q01DX001 (ip), vehicle: saline with Tween-80): 0 of 6

O=C(CNC(=O)Nc1ccc(C2=NCCN2)cc1)Nc1ccc(C2=NCCN2)cc1
survivor count (dose: 36.0 mg/kg/injection, schedule: Q01DX Z (ip), vehicle: water): 0 of 6 | survivor count (dose: 54.0 mg/kg/injection, schedule: Q01DX Z (ip), vehicle: water): 0 of 6 | survivor count (dose: 81.0 mg/kg/injection, schedule: Q01DX Z (ip), vehicle: water): 0 of 6 | survivor count (dose: 120.0 mg/kg/injection, schedule: Q01DX Z (ip), vehicle: water): 0 of 6

CCCCP(=O)(CCCC)Oc1cccc([N+](=O)[O-])c1
survivor count (dose: 200.0 mg/kg/injection, schedule: Q04DX003 (ip), vehicle: saline with Tween-80): 1 of 6 | survivor count [5]: 1 of 6

CC(=O)Nc1ccc(CCCCc2cccc(C(=N)N)c2)cc1
survivor count (dose: 75.0 mg/kg/injection, schedule: Q01DX009 (ip), vehicle: Klucel (hydroxypropylcellulose) (HPC)): 0 of 6 | survivor count (dose: 115.0 mg/kg/injection, schedule: Q01DX009 (ip), vehicle: Klucel (hydroxypropylcellulose) (HPC)): 0 of 6 | survivor count (dose: 170.0 mg/kg/injection, schedule: Q01DX009 (ip), vehicle: Klucel (hydroxypropylcellulose) (HPC)): 0 of 6

N#CCc1nn(-c2ccccc2)c(N)c1C#N
survivor count (dose: 225.0 mg/kg/injection, schedule: Q01DX001 (ip), vehicle: Klucel (hydroxypropylcellulose) (HPC)): 3 of 6

CNC(=O)Nc1nc2ccccc2[nH]1
T/C [5]: 127 % of control
